Assay [1] deals with FAM134C-mLIR-FLAG (UniProt Q86VR2). The assay can be described thus: co-IP; HEK293T co-transfected, harvested 24 h after transfection; FLAG-tagged FAM134 protein immunoprecipitated with anti-FLAG antibody and protein A Sepharose; HA-tagged partner or endogenous LC3 detected by Western blotting. (Immunoblotting shows a protein as a band on a membrane.)
In assay [2] the target is FAM134C-ΔLIR-FLAG (UniProt Q86VR2). Described as above.

By UniProt entry, the sequences of proteins in these tests, tags left out. Where a name states a change or a piece, a line headed by the entry shows the natural chain unless it says otherwise. Residues count along the entry.
UniProt Q86VR2: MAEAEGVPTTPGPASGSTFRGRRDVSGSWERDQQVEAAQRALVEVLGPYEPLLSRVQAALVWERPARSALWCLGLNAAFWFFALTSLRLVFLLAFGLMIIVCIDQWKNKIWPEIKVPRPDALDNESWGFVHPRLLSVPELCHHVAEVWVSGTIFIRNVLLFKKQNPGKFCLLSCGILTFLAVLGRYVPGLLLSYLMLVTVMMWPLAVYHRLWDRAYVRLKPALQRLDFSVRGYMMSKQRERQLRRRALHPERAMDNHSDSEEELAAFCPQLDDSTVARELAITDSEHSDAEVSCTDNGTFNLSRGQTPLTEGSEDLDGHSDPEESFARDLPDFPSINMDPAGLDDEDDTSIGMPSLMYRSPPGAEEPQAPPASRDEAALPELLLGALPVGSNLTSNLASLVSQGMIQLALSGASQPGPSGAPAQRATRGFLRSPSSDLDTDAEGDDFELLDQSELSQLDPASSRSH
UniProt P36894, residues 24-532: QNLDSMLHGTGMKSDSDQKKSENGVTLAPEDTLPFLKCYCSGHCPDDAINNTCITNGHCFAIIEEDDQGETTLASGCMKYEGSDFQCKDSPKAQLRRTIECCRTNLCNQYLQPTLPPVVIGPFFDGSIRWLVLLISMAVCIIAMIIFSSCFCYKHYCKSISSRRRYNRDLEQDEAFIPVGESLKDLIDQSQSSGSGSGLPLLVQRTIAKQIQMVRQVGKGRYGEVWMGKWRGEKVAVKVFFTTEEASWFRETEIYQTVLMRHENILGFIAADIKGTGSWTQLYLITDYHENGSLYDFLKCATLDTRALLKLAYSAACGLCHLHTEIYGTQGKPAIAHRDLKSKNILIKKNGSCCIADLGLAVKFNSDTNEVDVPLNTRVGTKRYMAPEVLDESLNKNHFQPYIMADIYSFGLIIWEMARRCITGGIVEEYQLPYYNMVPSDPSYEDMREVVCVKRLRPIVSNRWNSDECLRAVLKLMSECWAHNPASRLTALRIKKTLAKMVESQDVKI

These are yes or no findings as the source states them, for the method shown. In cells and extracts the contact can be indirect. Binding calls can cover weak binding; strength is not graded here.

In the case of “BMPR1A-HA (from UniProt P36894 24-532) (receptor)”, the binding entry in assay [1] and in assay [2] was “binds” each time.

The values above are taken from PMC12669696.
